The source of these data is PMC3264873 (Pharmaceutical Research, 2011).

The target of the series is T1, OATP1B1 (Homo sapiens, UniProt Q9Y6L6).
T1 sequence (Q9Y6L6 1-691): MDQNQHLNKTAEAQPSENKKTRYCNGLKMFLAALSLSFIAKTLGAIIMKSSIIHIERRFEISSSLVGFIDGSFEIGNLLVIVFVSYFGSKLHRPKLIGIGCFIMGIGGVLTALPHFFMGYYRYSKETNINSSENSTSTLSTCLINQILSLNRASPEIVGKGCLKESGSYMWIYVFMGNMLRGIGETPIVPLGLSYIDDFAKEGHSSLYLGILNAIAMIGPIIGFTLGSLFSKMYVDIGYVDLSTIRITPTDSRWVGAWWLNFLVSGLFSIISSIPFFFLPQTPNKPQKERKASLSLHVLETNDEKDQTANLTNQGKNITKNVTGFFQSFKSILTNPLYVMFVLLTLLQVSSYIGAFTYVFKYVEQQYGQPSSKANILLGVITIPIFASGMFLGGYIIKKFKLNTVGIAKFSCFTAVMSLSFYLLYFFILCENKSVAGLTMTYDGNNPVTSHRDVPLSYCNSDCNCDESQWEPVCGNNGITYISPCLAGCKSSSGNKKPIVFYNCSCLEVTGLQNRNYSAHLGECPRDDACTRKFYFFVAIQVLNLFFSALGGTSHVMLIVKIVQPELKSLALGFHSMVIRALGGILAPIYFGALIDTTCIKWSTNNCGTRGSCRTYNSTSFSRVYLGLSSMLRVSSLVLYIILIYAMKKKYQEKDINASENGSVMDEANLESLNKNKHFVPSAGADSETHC
Put plainly: Michaelis-Menten uptake kinetics in HEK293 cells stably expressing OATP1B1. In kind it is cell-based.

On to `CC(C)c1c(C(=O)Nc2ccccc2)c(-c2ccccc2)c(-c2ccc(F)cc2)n1CC[C@@H](O)C[C@@H](O)CC(=O)O` [Atorvastatin], for which the “Uptake in OATP1B1 cells relative to mock-transfected cells” value (at 5 min (E17βG) and 2 min (atorvastatin)) is listed as at least 3 times. Where the note is “atorvastatin, 24-well plates, HEK293-OATP1B1”, the “Vmax of OATP1B1-mediated uptake” value is listed as 6.61 (± 1.24) pmol/min/μg protein.
